{"source": "PubChem BioAssay AID1259275 (Sanger Institute, 2017)", "purpose": "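Kinase and colorectal cancer genes needed for cancer cell survival, with or without drugs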 (primary screen)", "cell system": "COLO320HSR human colorectal cancer cells", "knock-down reagent": "siRNA pool against human genes", "treatment": "anchor drug added one day after transfection: BYL719 at 1 µM, cetuximab at 5 µg/ml or trametinib at 10 nM; DMSO as vehicle arm", "measured": "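Viability averaged over replicates as a fraction of the non-targeting pool, a robust z-score for knock-down alone, and synergy scores with BYL719 (1 µM), cetuximab (5 µg/ml) or trametinib (10 nM)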", "scale": "robust z-score, siRNA alone: higher = more viable cells; strongly negative means essential", "hit rule": "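Essential means the knock-down by itself gives a robust z-score lower than -3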", "calls": "active = essential (siRNA alone); inactive = no change (siRNA alone)", "note": "In all, the deposit lists 794 reagents; below is a part drawn at random. Of all reagents, 13 (1.6%) got an active call. 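Calls mark knock-downs lethal by themselves, not drug synergy; drugs went in a day after transfection, with DMSO as vehicle.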 Unmarked entries are inactive. The numbers tell different reagents against one gene apart. Not all columns of the deposit are shown. The record does not give: the amount of reagent, the time to read-out."}
{"Gene": "ILK (integrin linked kinase)", "reagent": 1, "robust z-score, siRNA alone": 0.514}
{"Gene": "ILK (integrin linked kinase)", "reagent": 2, "robust z-score, siRNA alone": 0.726}
{"Gene": "PRKCSH (PRKCSH beta subunit of glucosidase II)", "reagent": 1, "robust z-score, siRNA alone": -0.113}
{"Gene": "CSNK2A1 (casein kinase 2 alpha 1)", "reagent": 1, "robust z-score, siRNA alone": 0.726}
{"Gene": "CSNK1E (casein kinase 1 epsilon)", "reagent": 1, "robust z-score, siRNA alone": 0.584}
{"Gene": "MKNK1 (MAPK interacting serine/threonine kinase 1)", "reagent": 1, "robust z-score, siRNA alone": 0.0147}
{"Gene": "TSSK1B (testis specific serine kinase 1B)", "reagent": 1, "robust z-score, siRNA alone": -0.358}
{"Gene": "CDC42BPA (CDC42 binding protein kinase alpha)", "reagent": 1, "robust z-score, siRNA alone": -0.301}
{"Gene": "PAK5 (p21 (RAC1) activated kinase 5)", "reagent": 1, "robust z-score, siRNA alone": -0.697}

Laid out differently: results already given.
{"Gene":"PRKCSH (PRKCSH beta subunit of glucosidase II)","reagent":1,"robust z-score, siRNA alone":-0.113}
{"Gene":"CSNK2A1 (casein kinase 2 alpha 1)","reagent":1,"robust z-score, siRNA alone":0.726}

Next results:
{"Gene": "PEAK1 (pseudopodium enriched atypical kinase 1)", "reagent": 1, "robust z-score, siRNA alone": -0.311}
{"Gene": "TWF2 (twinfilin actin binding protein 2)", "reagent": 1, "robust z-score, siRNA alone": 0.726}
{"Gene": "HK3 (hexokinase 3)", "reagent": 1, "robust z-score, siRNA alone": 0.649}
{"Gene": "NRBP2 (nuclear receptor binding protein 2)", "reagent": 1, "robust z-score, siRNA alone": 0.726}
{"Gene": "ALDH18A1 (aldehyde dehydrogenase 18 family member A1)", "reagent": 1, "robust z-score, siRNA alone": 0.488}
{"Gene": "CNOT1 (CCR4-NOT transcription complex subunit 1)", "reagent": 1, "robust z-score, siRNA alone": -0.964}
{"Gene": "BPTF (bromodomain PHD finger transcription factor)", "reagent": 1, "robust z-score, siRNA alone": 0.726}
{"Gene": "PRKAG1 (protein kinase AMP-activated non-catalytic subunit gamma 1)", "reagent": 1, "robust z-score, siRNA alone": 0.726}
{"Gene": "SYNCRIP (synaptotagmin binding cytoplasmic RNA interacting protein)", "reagent": 1, "robust z-score, siRNA alone": -0.999}
{"Gene": "N4BP2 (NEDD4 binding protein 2)", "reagent": 1, "robust z-score, siRNA alone": 0.726}
